Binding data for one molecule are collected here from paper PMC10861518.

Common to all, as to test: co-IP; HEK293T cells cotransfected for 48 h with Biotin-HNF4α and a Myc-Peli1 construct; whole cell lysates immunoprecipitated with Myc antibody and protein A/G agarose at 4 °C, washed with buffer with 500 mM NaCl; Biotin-HNF4α detected with Streptavidin-Biotin complex containing HRP
The target in experiment [1] is T1, Myc-tagged full-length Peli1 (Myc-Full-Peli1) (UniProt Q96FA3).
T1 sequence: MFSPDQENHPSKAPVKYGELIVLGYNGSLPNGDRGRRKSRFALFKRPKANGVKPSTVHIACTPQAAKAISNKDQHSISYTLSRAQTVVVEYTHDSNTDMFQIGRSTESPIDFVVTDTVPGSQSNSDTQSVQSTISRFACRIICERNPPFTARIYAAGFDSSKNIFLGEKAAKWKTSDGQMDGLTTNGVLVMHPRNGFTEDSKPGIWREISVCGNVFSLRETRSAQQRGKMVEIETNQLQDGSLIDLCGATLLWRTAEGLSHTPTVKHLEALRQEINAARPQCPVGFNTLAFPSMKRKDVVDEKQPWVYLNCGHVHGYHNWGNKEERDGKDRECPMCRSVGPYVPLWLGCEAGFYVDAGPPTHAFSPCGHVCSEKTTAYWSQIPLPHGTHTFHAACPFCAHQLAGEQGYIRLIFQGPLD

Experiment [2] deals with T2, Peli1 with a deletion of the FHA domain (aa 276-418, Myc-ΔFHA-Peli1) (UniProt Q96FA3).
T2 sequence: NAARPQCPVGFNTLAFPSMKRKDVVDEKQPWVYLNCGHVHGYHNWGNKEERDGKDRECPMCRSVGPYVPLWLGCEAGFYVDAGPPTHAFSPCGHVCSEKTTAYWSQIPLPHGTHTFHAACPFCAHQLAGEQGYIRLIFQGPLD

Experiment [3] has as its target T3, Peli1 with a deletion of the RING-like domain (aa 1-289, Myc-ΔRING-Peli1) (UniProt Q96FA3).
T3 sequence: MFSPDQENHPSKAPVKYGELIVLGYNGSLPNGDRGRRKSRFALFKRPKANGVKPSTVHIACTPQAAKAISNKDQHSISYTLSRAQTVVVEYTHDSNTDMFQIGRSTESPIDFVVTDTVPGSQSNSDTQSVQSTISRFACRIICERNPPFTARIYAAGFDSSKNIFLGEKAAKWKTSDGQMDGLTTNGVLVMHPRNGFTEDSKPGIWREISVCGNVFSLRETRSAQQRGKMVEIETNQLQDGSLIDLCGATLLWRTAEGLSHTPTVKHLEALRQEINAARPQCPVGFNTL

Results are given in words; binding and its absence hold for the method and conditions named. Binding seen in cells or lysates may run through a third protein. Some binding calls cover weakened binding; strength is not graded here. Sequences can lack the tags named with a protein.

B1: Biotin-HNF4α (hepatocyte nuclear factor 4alpha with TEV cleavage site and biotinylated peptide, from pEBB-TB-HNF4α) (protein, UniProt P41235 1-474)
chain: MRLSKTLVDMDMADYSAALDPAYTTLEFENVQVLTMGNDTSPSEGTNLNAPNSLGVSALCAICGDRATGKHYGASSCDGCKGFFRRSVRKNHMYSCRFSRQCVVDKDKRNQCRYCRLKKCFRAGMKKEAVQNERDRISTRRSSYEDSSLPSINALLQAEVLSRQITSPVSGINGDIRAKKIASIADVCESMKEQLLVLVEWAKYIPAFCELPLDDQVALLRAHAGEHLLLGATKRSMVFKDVLLLGNDYIVPRHCPELAEMSRVSIRILDELVLPFQELQIDDNEYAYLKAIIFFDPDAKGLSDPGKIKRLRSQVQVSLEDYINDRQYDSRGRFGELLLLLPTLQSITWQMIEQIQFIKLFGMAKIDNLLQEMLLGGSPSDAPHAHHPLHPHLMQEHMGTNVIVANTMPTHLSNGQMCEWPRPRGQAATPETPQPSPPGGSGSEPYKLLPGAVATIVKPLSAIPQPTITKQEVI
modifications: biotin on the biotinylated peptide tag
B1: the figures for the binding result in experiment [1], in experiment [2] and in experiment [3] were “binds”, “binds” and “no binding”, respectively.
